{"sequences": {"note": "The chains behind the UniProt entries cited, without tags or fusion partners.", "UniProt O43295": "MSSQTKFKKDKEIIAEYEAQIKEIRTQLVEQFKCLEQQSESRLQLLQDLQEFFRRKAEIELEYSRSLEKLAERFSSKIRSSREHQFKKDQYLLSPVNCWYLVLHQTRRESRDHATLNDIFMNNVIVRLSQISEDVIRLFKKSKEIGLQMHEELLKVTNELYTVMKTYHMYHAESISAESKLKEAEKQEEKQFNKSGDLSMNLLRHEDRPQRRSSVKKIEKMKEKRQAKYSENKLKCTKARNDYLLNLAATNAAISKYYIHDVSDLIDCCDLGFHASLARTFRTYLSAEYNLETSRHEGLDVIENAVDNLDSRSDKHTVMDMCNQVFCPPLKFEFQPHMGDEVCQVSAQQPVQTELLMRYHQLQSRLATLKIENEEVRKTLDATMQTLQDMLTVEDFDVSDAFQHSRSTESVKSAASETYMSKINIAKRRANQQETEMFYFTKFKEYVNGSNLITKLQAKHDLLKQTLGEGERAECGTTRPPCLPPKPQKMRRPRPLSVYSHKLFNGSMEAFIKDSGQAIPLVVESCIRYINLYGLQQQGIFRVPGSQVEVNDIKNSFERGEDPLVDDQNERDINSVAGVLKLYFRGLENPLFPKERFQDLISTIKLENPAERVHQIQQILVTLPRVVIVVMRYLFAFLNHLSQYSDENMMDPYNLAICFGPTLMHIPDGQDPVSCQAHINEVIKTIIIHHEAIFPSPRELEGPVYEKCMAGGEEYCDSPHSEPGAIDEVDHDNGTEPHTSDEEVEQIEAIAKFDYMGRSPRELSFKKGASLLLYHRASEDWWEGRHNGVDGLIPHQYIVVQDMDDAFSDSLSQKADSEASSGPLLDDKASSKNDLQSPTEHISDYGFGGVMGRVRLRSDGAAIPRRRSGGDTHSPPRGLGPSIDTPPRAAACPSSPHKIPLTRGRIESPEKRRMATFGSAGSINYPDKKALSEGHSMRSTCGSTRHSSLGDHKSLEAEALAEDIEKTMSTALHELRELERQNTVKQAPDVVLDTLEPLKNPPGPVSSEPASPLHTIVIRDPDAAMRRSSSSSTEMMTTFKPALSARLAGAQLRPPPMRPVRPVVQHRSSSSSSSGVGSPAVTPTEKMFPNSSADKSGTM", "UniProt Q7Z6B7": "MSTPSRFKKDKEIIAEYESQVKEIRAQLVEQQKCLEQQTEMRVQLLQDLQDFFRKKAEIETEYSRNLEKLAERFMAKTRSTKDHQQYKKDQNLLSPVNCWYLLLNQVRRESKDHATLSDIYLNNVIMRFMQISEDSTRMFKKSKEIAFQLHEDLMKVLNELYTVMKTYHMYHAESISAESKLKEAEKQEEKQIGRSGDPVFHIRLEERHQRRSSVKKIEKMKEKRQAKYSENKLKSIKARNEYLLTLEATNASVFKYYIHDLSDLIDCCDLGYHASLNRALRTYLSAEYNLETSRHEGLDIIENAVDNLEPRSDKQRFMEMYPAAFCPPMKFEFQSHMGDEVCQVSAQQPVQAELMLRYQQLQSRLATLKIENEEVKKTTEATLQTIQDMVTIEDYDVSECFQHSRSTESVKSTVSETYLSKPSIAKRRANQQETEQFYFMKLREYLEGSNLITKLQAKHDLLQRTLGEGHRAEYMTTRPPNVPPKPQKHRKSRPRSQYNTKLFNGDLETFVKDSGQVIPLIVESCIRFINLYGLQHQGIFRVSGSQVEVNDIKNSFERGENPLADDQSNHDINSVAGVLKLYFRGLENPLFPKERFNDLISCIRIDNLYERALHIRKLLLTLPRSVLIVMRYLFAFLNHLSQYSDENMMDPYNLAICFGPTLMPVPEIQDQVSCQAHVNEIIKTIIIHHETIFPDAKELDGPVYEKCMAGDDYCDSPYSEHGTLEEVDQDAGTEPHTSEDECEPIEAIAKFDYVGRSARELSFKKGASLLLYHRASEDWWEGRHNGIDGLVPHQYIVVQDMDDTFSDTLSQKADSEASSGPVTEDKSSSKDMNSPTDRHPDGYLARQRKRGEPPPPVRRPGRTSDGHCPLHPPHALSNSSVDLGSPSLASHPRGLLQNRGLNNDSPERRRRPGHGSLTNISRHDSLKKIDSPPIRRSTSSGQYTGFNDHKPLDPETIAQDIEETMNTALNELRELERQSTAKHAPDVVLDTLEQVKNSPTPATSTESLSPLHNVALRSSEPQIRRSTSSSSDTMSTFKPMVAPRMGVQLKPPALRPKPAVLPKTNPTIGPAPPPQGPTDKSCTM", "UniProt Q812A2": "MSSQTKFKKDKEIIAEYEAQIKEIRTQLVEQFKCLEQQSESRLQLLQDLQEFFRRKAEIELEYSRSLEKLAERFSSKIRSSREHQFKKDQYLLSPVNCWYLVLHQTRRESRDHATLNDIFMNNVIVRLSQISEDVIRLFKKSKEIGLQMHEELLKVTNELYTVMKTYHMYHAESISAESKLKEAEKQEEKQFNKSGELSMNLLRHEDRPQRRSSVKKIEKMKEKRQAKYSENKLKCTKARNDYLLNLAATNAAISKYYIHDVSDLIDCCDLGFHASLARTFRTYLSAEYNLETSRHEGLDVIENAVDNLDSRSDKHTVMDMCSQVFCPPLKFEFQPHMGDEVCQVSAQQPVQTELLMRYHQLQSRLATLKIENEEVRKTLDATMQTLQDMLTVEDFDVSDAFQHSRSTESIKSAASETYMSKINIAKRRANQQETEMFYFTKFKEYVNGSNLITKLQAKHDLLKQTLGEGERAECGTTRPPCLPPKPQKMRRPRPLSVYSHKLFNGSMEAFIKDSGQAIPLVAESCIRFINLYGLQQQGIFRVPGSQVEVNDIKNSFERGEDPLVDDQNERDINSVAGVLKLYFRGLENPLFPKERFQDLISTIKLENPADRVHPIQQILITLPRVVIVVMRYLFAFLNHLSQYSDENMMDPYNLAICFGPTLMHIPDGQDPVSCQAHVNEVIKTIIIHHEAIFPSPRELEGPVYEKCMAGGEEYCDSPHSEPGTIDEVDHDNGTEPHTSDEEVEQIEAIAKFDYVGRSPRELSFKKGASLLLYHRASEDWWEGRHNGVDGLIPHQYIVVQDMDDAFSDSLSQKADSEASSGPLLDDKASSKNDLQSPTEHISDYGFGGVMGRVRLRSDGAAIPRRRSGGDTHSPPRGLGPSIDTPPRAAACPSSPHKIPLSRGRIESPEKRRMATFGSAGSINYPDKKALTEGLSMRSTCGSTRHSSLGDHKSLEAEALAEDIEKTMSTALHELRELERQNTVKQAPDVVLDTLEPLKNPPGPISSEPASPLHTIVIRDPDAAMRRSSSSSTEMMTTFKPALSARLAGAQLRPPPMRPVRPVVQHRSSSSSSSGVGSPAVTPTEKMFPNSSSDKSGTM"}, "source": "paper PMC3591447", "key": {"[1]": {"target": "GFP-tagged full-length srGAP3 (srGAP3-WT) (human) (UniProt O43295)", "assay": "co-IP; non-tagged srGAP3 and GFP-tagged srGAPs co-transfected into HEK293FT; lysed 24-36 h later in nuclear lysis buffer (20 mM Tris-Cl pH 7.8, 125 mM NaCl, 5 mM MgCl2, 0.2 mM EDTA, 12% glycerol, 0.1% NP-40); precipitated with GFP antibody on protein A/G beads; blot with srGAP3 antibody 3A1"}, "[2]": {"target": "GFP-tagged full-length srGAP2 (srGAP2-WT) (human) (UniProt O75044)", "assay": "co-IP; non-tagged srGAP3 and GFP-tagged srGAPs co-transfected into HEK293FT; lysed 24-36 h later in nuclear lysis buffer (20 mM Tris-Cl pH 7.8, 125 mM NaCl, 5 mM MgCl2, 0.2 mM EDTA, 12% glycerol, 0.1% NP-40); precipitated with GFP antibody on protein A/G beads; blot with srGAP3 antibody 3A1"}, "[3]": {"target": "GFP-tagged full-length srGAP2 R527A (human) (UniProt O75044)", "assay": "co-IP; non-tagged srGAP3 and GFP-tagged srGAPs co-transfected into HEK293FT; lysed 24-36 h later in nuclear lysis buffer (20 mM Tris-Cl pH 7.8, 125 mM NaCl, 5 mM MgCl2, 0.2 mM EDTA, 12% glycerol, 0.1% NP-40); precipitated with GFP antibody on protein A/G beads; blot with srGAP3 antibody 3A1"}, "[4]": {"target": "GFP-tagged full-length srGAP1 (srGAP1-WT) (human) (UniProt Q7Z6B7)", "assay": "co-IP; non-tagged srGAP3 and GFP-tagged srGAPs co-transfected into HEK293FT; lysed 24-36 h later in nuclear lysis buffer (20 mM Tris-Cl pH 7.8, 125 mM NaCl, 5 mM MgCl2, 0.2 mM EDTA, 12% glycerol, 0.1% NP-40); precipitated with GFP antibody on protein A/G beads; blot with srGAP3 antibody 3A1"}, "[5]": {"target": "endogenous srGAP2 of Neuro2a cells (mouse (endogenous in Neuro2a)) (UniProt Q91Z67)", "assay": "co-IP; endogenous proteins; Neuro2a lysates precipitated with srGAP2 (2A2) and srGAP3 (3A1) antibodies, blot with srGAP3 antibody 3A3"}}, "note": "These are yes or no findings as the source states them, for the method shown. Binding seen in cells or lysates may run through a third protein. Some entries that bind do so weakly or less than the wild type."}
{"substance": "GFP-tagged full-length srGAP3 (srGAP3-WT) (from UniProt O43295 1-1099)", "values": [{"measurement": "binding", "setting": "[1]", "result": "binds"}]}
{"substance": "non-tagged srGAP3 (from UniProt O43295 1-1099)", "values": [{"measurement": "binding", "setting": "[2]", "result": "binds"}, {"measurement": "binding", "setting": "[3]", "result": "binds"}, {"measurement": "binding", "setting": "[4]", "result": "binds"}]}
{"substance": "endogenous srGAP3 of Neuro2a cells (from UniProt Q812A2 1-1099)", "values": [{"measurement": "binding", "setting": "[5]", "result": "binds"}]}
